Out of some 580,000 compounds screened, about 6,100 (1.1%) were called active. The shares of active, inactive and inconclusive entries below differ from those in the screen. The call rests on the fitted dose curve; in most records, active means well fitted inhibition curve with a large enough effect; inconclusive means small, poorly fitted or top-dose-only effect, or another doubt; inactive means no such curve, though single readings can be large or run the other way. A potency beside an inconclusive call is a rough fit, not a confirmed value.
Target: Polyunsaturated fatty acid lipoxygenase ALOX12 (Homo sapiens) (UniProt P18054)
Assay: Primary qHTS assay for inhibitors of human arachidonate 12S-lipoxygenase (ALOX12): Round 2
Details: purified 12hLO, xylenol orange hydroperoxide absorbance; activity change, negative = inhibition: at 108 µM (top of the series) unless noted
In short: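 Purified human 12hLO at 150 nM in 25 mM Hepes, 0.01% Triton X-100, pH 7.0, preincubated 15 min at room temperature with compound. Reaction started with 40 uM arachidonic acid, 30 min at room temperature. Hydroperoxide measured by Fe-xylenol orange, 573/405 nm absorbance ratio.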
On the % scale 0 is the no-effect control and ±100 the full control effect; potency means the concentration at half of the fitted maximal effect.

The chains behind the UniProt entries cited, without tags or fusion partners. Where a name states a change or a piece, a line headed by the entry shows the natural chain unless it says otherwise.
UniProt P18054: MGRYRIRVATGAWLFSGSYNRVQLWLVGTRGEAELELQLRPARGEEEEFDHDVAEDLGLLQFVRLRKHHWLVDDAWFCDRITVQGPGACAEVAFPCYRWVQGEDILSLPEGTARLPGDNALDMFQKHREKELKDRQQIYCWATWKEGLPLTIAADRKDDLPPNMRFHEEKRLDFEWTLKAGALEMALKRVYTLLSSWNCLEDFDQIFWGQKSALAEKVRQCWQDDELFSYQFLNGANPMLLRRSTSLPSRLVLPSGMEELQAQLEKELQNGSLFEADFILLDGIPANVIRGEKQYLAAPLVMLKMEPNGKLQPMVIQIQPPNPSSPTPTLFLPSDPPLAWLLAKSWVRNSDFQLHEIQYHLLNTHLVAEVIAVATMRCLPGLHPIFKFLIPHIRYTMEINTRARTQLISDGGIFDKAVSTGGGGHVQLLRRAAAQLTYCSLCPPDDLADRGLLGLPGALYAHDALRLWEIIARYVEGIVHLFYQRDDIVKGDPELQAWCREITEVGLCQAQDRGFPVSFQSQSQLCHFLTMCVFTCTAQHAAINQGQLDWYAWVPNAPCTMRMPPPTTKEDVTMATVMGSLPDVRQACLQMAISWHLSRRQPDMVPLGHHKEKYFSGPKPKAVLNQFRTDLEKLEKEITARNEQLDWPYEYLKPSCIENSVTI

Structure (SMILES) | activity change, negative = inhibition | Potency
CCOc1ccc(CNC(=O)c2ccc3c(c2)c(C)c(C)n3C)cc1 | inactive: -18% | –
O=S1(=O)CCN(C2CCCCC2)c2c(F)nc(N3CCOCC3)c(F)c21 | – | inconclusive: 35.5 µM [inhibitor, partial curve, poor fit]
CC(C)C[C@H](NC(=O)c1[nH]cnc1C(=O)Nc1ccccc1)C(=O)OC(C)(C)C | – | inconclusive: 3.55 µM [inhibitor, full curve]
COc1cc(/C=N/NC(=O)/C(=C/c2ccccc2)CCO)ccc1O | inactive: 26.4% | –
CCN(C(=O)COC(=O)CCC(=O)c1cccs1)c1c(N)n(Cc2ccccc2)c(=O)[nH]c1=O | inconclusive: -30.1% [inhibitor] | –
C=CCn1c(COc2ccc(C(C)(C)C)cc2)nnc1SCc1c(F)cccc1Cl | – | inconclusive: 39.8 µM [inhibitor, partial curve, poor fit]
CCCn1c2ccccc2c2cnn(CC(=O)NCC3CCN(Cc4ccc(C)cc4)CC3)c(=O)c21 | – | inconclusive: 70.8 µM [inhibitor, partial curve, poor fit]
COc1cccc(CNc2nccs2)c1O | – | inconclusive: 3.16 µM [inhibitor, full curve]
CCOc1ccc(-n2c(SCc3ccccc3)nc3c([nH]c4ccccc43)c2=O)cc1 | – | inconclusive: 44.7 µM [inhibitor, partial curve, poor fit]
COc1ccccc1Nc1nc(NCC2CCCO2)c2ccccc2n1 (configuration not stated) | – | inconclusive: 44.7 µM [inhibitor, partial curve, poor fit]
Cc1ccc(/C(=N\O)c2oc3ccc4c(C)cc(=O)oc4c3c2C)cc1 | inactive: -5.42% | –
CCOC(=O)c1ccc(NC(=O)c2c(NCc3sccc3C)sc3c2CCC(C)C3)cc1 (configuration not stated) | – | inconclusive: 39.8 µM [inhibitor, partial curve, poor fit]
CCN(C(=O)C1CCN(c2oc(-c3ccco3)nc2C#N)CC1)c1ccccc1 | inactive: -26.4% | –
N#CCCn1c(=O)c(-c2ccccc2)nc2cnc(Nc3ccccc3)nc21 | – | inconclusive: 79.4 µM [inhibitor, partial curve, poor fit]
O=C(O)C1CCC(=O)N1C1c2ccccc2Oc2ccccc21 (configuration not stated) | inactive: -19.3% | –
CCn1c(=O)c(C(=O)Nc2ncccc2O)c(O)c2ccccc21 | inactive: 3.9% | –
CCOC(=O)C(Cc1ccccc1)(Nc1ccc(OC)cc1)C(O)c1ccc([N+](=O)[O-])cc1 (configuration not stated) | – | inconclusive: 44.7 µM [inhibitor, partial curve, poor fit]
Cc1[nH]ccc(=O)c1OCC(=O)Nc1ccc(Cl)c(Cl)c1 | – | inconclusive: 56.2 µM [inhibitor, partial curve, poor fit]
Clc1cc(Cl)c(N/N=C/c2ccc(Br)cc2)c(Cl)c1 | – | inconclusive: 28.2 µM [inhibitor, single point]
CCCNC(=O)NS(=O)(=O)c1cnccc1Sc1ccc(Cl)cc1 | – | inconclusive: 100 µM [inhibitor, partial curve, poor fit]
O=C1CCN=C(Nc2ccc(F)cc2)N1Cc1ccccc1 | – | inconclusive: 44.7 µM [inhibitor, partial curve, poor fit]
CCCCN(C=O)c1c(CC)nc2c(OCCOc3ccccc3)cccn12 | – | inconclusive: 4.47 µM [inhibitor, full curve, poor fit]
Cc1ccc(C(=O)Nc2ccc(N3CCCC3)cc2)cc1 | – | inconclusive: 50.1 µM [inhibitor, single point]

Structure (SMILES) | activity change, negative = inhibition | Potency
O=C(O)c1ccc(-c2ccc(OS(=O)(=O)c3ccccc3F)cc2)cc1 | – | inconclusive: 141 µM [inhibitor, single point]
COc1ccc(-c2ccc(C3C(C#N)=C(N)Oc4n[nH]c(C)c43)o2)cc1 (configuration not stated) | – | inconclusive: 12.6 µM [inhibitor, full curve, poor fit]
CCCCCCCCCC[n+]1cccc(C(=O)N(CC)CC)c1 | inactive: -8.99% | –
COc1ccc(-n2c(Cc3cccn3C)nnc2SCC(=O)NCc2ccco2)cc1 | inactive: 228% | –
Cn1cc(CNCC2(COc3ccc(C(F)(F)F)cn3)C[C@@H](O)[C@@H](O)C2)cn1 (some centres not stated) | – | active: 17.8 µM
CCc1ccc(C(C)NC(=O)CN(C)Cc2ccc(C)o2)cc1 (configuration not stated) | – | inconclusive: 8.91 µM [inhibitor, full curve, poor fit]
CN(C)[S+](=O)([O-])c1ccc2c(c1)OCCN(Cc1cccc(Cl)c1)C2 | inactive: -26% [at 176 µM] | –
O=C(CC1C(=O)NCCN1CC1CCCCC1)NCc1ccc(F)cc1F (configuration not stated) | – | inconclusive: 31.6 µM [inhibitor, partial curve]
C[n+]1cnn2c1SCC1(COC1)C2 | – | inconclusive: 17.8 µM [inhibitor, full curve, poor fit]
CC(C)(C)c1ccc(C(=O)Nc2ccc(Cl)cc2)cc1 | inactive: 7.73% | –
Cc1ccc(-c2nn(-c3ccccn3)c(=O)c3ccccc23)cc1C | – | inconclusive: 126 µM [inhibitor, single point]
O=C(NCc1ccccc1)C(c1ccccc1)n1c(-c2ccncc2)nc2ccccc21 (configuration not stated) | – | inconclusive: 35.5 µM [inhibitor, single point]
CC(C)Cn1nc(NC(=O)c2cccc(Cl)c2)c2cc3ccccc3nc21 | – | inconclusive: 126 µM [inhibitor, partial curve, poor fit]
CC(C)c1ccc(NC(=O)COC(=O)c2c[nH]c(=O)[nH]c2=O)cc1 | – | inconclusive: 0.251 µM [inhibitor, full curve, poor fit]
COc1ccc(-c2noc(-c3csc([C@@H]4O[C@H](CO)[C@H](O)[C@H](O)[C@H]4O)n3)n2)cc1OC | – | inconclusive: 251 µM [inhibitor, partial curve, poor fit]
Cc1ccc(NS(=O)(=O)c2cccc(Cl)c2Cl)cc1S(=O)(=O)N1CCOCC1 | – | inconclusive: 56.2 µM [inhibitor, partial curve, poor fit]
CC(OC(=O)c1ccc(O)cc1)C(=O)C12CC3CC(CC(C3)C1)C2 (configuration not stated) | – | inconclusive: 50.1 µM [inhibitor, partial curve, poor fit]
CC(C)CN1C(=O)c2ccccc2C(C(=O)Nc2ccncc2)C12CCCC2 (configuration not stated) | inactive: 48.1% | –
COc1ccc(C(=O)N2CCC3(CC2)N(C)C(=O)CS3(=O)=O)c(C)c1 | inactive: 21.3% | –
Cc1ccc(N2C(=O)CS/C2=C(\C(Cl)=C(Cl)Cl)[N+](=O)[O-])cc1 | – | inconclusive: 12.6 µM [inhibitor, full curve]
O=C(Nc1cccc(-c2csc(Nc3ccc(Cl)cc3)n2)c1)c1cccc(C(F)(F)F)c1 | – | inconclusive: 100 µM [inhibitor, single point]
O=C(COC(=O)c1ccc(S(=O)(=O)N2CCCCCC2)cc1)Nc1ccc(Cl)cn1 | inactive: -12.2% | –
O=C(CCCN=C1NS(=O)(=O)c2ccccc21)OCC(=O)c1ccc(F)cc1 | inactive: -9.98% | –

Structure (SMILES) | activity change, negative = inhibition | Potency
COc1ccc(C(C)=O)cc1COC(=O)CNC(=O)c1ccc(Cl)cc1 | inactive: -2.12% | –
O=C(c1ccco1)N1CCN(c2ccc([N+](=O)[O-])cc2Cl)CC1 | inactive: -6.97% | –
COc1ccc(Cl)cc1NC(=O)CSc1nc(=O)n(Cc2ccco2)c2c1CCC2 | – | inconclusive: 126 µM [inhibitor, partial curve, poor fit]
O=C(CCn1c(=S)[nH]c2cc3c(cc2c1=O)OCO3)NCc1cccc(Cl)c1 | inactive: -12.4% | –
CN(C1CCOCC1)C1CCN(C(=O)c2ccncc2)CC1 | – | inconclusive: 5.01 µM [inhibitor, full curve, poor fit]
[O-]/C(=C(\C(=S)Nc1cccc2ccccc12)[n+]1ccccc1)c1ccc2c(c1)OCCO2 | – | inconclusive: 126 µM [inhibitor, partial curve, poor fit]
Cc1cc(Cl)c(OCCOCCN2CCN(C)CC2)c(Br)c1 | – | inconclusive: 0.447 µM [inhibitor, full curve, poor fit]
COc1cccc(-c2ccccc2CN)c1 | inactive: 33.5% [at 176 µM] | –
COc1ccc(N2CCC(CNS(=O)(=O)c3cccc(C(F)(F)F)c3)C2)cc1 (configuration not stated) | – | inconclusive: 50.1 µM [inhibitor, partial curve, poor fit]
Cc1cnc(CN2CCCC(C(=O)c3ccc4c5c(cccc35)CC4)C2)[nH]1 (configuration not stated) | inactive: 84.7% | –
Nc1ccc(O)cc1 | – | inconclusive: 18.1 µM [inhibitor, single point]
CCC(Oc1ccccc1F)C(=O)N1CCC(c2nc3ccccc3o2)CC1 (configuration not stated) | – | inconclusive: 5.01 µM [inhibitor, full curve, poor fit]
COc1ccc(OC)c(-c2noc(CSc3nnc(-c4ccccc4)n3-c3ccccc3)n2)c1 | inactive: -13.5% | –
O=C1CC(c2ccccc2)N(Cc2ccc3c(c2)CCO3)CCCCCCN1 (configuration not stated) | inactive: 26.4% | –
Cc1ccc(-n2ncc3c(Nc4ccc(Oc5ccccc5)cc4)ncnc32)c(C)c1 | – | inconclusive: 79.4 µM [inhibitor, partial curve, poor fit]
CS(=O)(=O)N(CC(=O)NCCSCc1c(F)cccc1Cl)c1cccc([N+](=O)[O-])c1 | – | inconclusive: 112 µM [inhibitor, single point]
COc1ccc(N2CCN(Cc3cc(OC)c(O)c([N+](=O)[O-])c3)CC2)cc1 | – | inconclusive: 1 µM [inhibitor, full curve]
Oc1ccccc1-c1nc2cnccn2c1Nc1ccc2c(c1)OCCO2 | inactive: 3.99% | –
Cc1[nH]c2ccccc2c1/C=C/c1nc2ccccc2c(=O)[nH]1 | – | inconclusive: 44.7 µM [inhibitor, partial curve, poor fit]
Cc1ccc(S(=O)(=O)NCc2ccc(C(=O)NCCc3ccc(S(N)(=O)=O)cc3)cc2)cc1 | inactive: 0% | –
Cc1ccc(OCC(=O)Nc2nnc(S(=O)(=O)N3CCc4ccccc43)s2)cc1 | – | inconclusive: 50.1 µM [inhibitor, partial curve, poor fit]

Quoted at random: 4 records from the list.
Structure (SMILES) | activity change, negative = inhibition | Potency
Cc1ccc(S(=O)(=O)NCc2ccc(C(=O)NCCc3ccc(S(N)(=O)=O)cc3)cc2)cc1 | inactive: 0% | –
CCC(Oc1ccccc1F)C(=O)N1CCC(c2nc3ccccc3o2)CC1 (configuration not stated) | – | inconclusive: 5.01 µM [inhibitor, full curve, poor fit]
[O-]/C(=C(\C(=S)Nc1cccc2ccccc12)[n+]1ccccc1)c1ccc2c(c1)OCCO2 | – | inconclusive: 126 µM [inhibitor, partial curve, poor fit]
O=C(c1ccco1)N1CCN(c2ccc([N+](=O)[O-])cc2Cl)CC1 | inactive: -6.97% | –

— PubChem BioAssay AID1671190 (National Center for Advancing Translational Sciences (NCATS), 2021)
